The values that follow come from the supplement of paper PMC8728848.

What all share (assay): glycan array binding signal (z-score within array); higher = stronger binding
Conditions in all cases: glycan notation: IUPAC condensed, linker removed

Assay [1] has as its target Neu5Ac(a2-6)Gal(b1-4)GlcNAc(b1-3)Gal(b1-4)GlcNAc(b1-3)Gal(b1-4)GlcNAc(b1-2)Man(a1-3)[Neu5Ac(a2-6)Gal(b1-4)GlcNAc(b1-3)Gal(b1-4)GlcNAc(b1-3)Gal(b1-4)GlcNAc(b1-2)Man(a1-6)]GalNAc. Put shortly: (§1)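 Glycan array data were curated from 3228 arrays in the Consortium for Functional Glycomics database and kept only where the protein sequence was available. Glycan names were converted to IUPAC-condensed notation, and columns mapping to the same glycan were averaged. The binding signal is a within-array Z-score, averaged across arrays of the same protein sequence at different concentrations or buffers and across linkers. Negative Z-scores can be read as non-binding.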

Assay [2] concerns the target Neu5Ac(a2-6)Gal(b1-4)GlcNAc(b1-3)Gal(b1-4)GlcNAc(b1-3)GalNAc. Put shortly:
as §1

The target of assay [3] is Neu5Ac(a2-6)Gal(b1-4)GlcNAc(b1-3)Gal(b1-4)GlcNAc(b1-3)[Neu5Ac(a2-6)Gal(b1-4)GlcNAc(b1-3)Gal(b1-4)GlcNAc(b1-6)]GalNAc. Summed up: as §1
In assay [4] the target is Neu5Ac(a2-6)Gal(b1-4)GlcNAc(b1-3)Gal(b1-4)GlcNAc(b1-6)[Gal(b1-3)]GalNAc. Summed up: as §1
The target in assay [5] is Neu5Ac(a2-6)Gal(b1-4)GlcNAc(b1-3)Gal(b1-4)[Fuc(a1-3)]GlcNAc(b1-3)Gal(b1-4)[Fuc(a1-3)]GlcNAc. Put shortly:
as §1

For assay [6], the target named is Neu5Ac(a2-6)Gal(b1-4)GlcNAc(b1-3)GalNAc. Put shortly:
as §1

The target of assay [7] is Neu5Ac(a2-6)Gal(b1-4)GlcNAc(b1-3)[Neu5Ac(a2-6)Gal(b1-4)GlcNAc(b1-6)]GalNAc. Put shortly:
as §1

Assay [8] addresses Neu5Ac(a2-6)Gal(b1-4)GlcNAc(b1-6)GalNAc. Put shortly: as §1
The target in assay [9] is Neu5Ac(a2-6)Gal(b1-4)GlcNAc(b1-6)[Gal(b1-3)GlcNAc(b1-3)]Gal(b1-4)Glc. Summed up: as §1
For assay [10], the target named is Neu5Ac(a2-6)Gal(b1-4)GlcNAc(b1-6)[Gal(b1-3)]GalNAc. Put shortly:
as §1

The target in assay [11] is Neu5Ac(a2-6)Gal(b1-4)GlcNAc6S. Put shortly: as §1
The next assay addresses Neu5Ac(a2-6)GalNAc. Summed up: as §1
Assay [12] concerns the target Neu5Ac(a2-6)GalNAc(b1-4)GlcNAc. Summed up:
as §1

The target of assay [13] is Neu5Ac(a2-6)GalNAc(b1-4)GlcNAc6S. Put shortly: as §1
The target in assay [14] is Neu5Ac(a2-6)GlcNAc(b1-4)GlcNAc. Summed up:
as §1

For assay [15], the target named is Neu5Ac(a2-6)GlcNAc(b1-4)GlcNAc(b1-4)GlcNAc. Put shortly:
as §1

The next assay deals with Neu5Ac(a2-8)Neu5Ac. Summed up: as §1
The target in assay [16] is Neu5Ac(a2-8)Neu5Ac(a2-3)Gal(b1-3)GalNAc(b1-4)[Neu5Ac(a2-3)]Gal(b1-4)Glc. Summed up: as §1
In assay [17] the target is Neu5Ac(a2-8)Neu5Ac(a2-3)Gal(b1-3)GalNAc(b1-4)[Neu5Ac(a2-8)Neu5Ac(a2-3)]Gal(b1-4)Glc. Summed up: as §1
Assay [18] deals with Neu5Ac(a2-8)Neu5Ac(a2-3)Gal(b1-4)Glc. Put shortly: as §1
Assay [19] has as its target Neu5Ac(a2-8)Neu5Ac(a2-3)Gal(b1-4)GlcNAc. Summed up: as §1
Assay [20] concerns the target Neu5Ac(a2-8)Neu5Ac(a2-3)[Gal(b1-3)GalNAc(b1-4)]Gal(b1-4)Glc. Put shortly:
as §1

In assay [21] the target is Neu5Ac(a2-8)Neu5Ac(a2-3)[GalNAc(b1-4)]Gal(b1-4)Glc. Summed up:
as §1

The other results are listed elsewhere or left out.

B1: BT4246 (Bacteroides thetaiotaomicron), Q89ZX5 (protein)
chain: MGSSHHHHHHENLYFQGHMASDYLDVVPPEQPNIDDAMSSPTRALGFLYSCYGGVSTDLPSAYLGEINSTTDEYVLPYSWNTDGYWGAYAFNTASSTNQDWLWGTTYQYIGQCYLFLQKLENAGSDIASDAEKEQWRAECQFLVAYYHFATLRRYGPIPITDSYIPMDTPTSEYNGRFHFDYCVDWIANQLDEAAKVLPANRTVTNEWGRATSTIAKAVKARLLLYAASPLWNGSFPYPNWQNENFETPGYGKALVSNTYDKSKWERALAACQEALTLATTSGDRELYDDDEYYSRQSLNLPFVPGVADVEDNKEFLKNVMKMRYAVSTRESEGNKEIIWGLSNQFDFYSRYPLRILKKSDGTWHAGYSGVSPTLYTFEHFYTANGKLPEKDLDFTPSSEWFESAGISSREDIIKLNVGREPRFYAWMAFDGGDYGTKFAAGSPLKLEMRNSEMHGYNPSLFNRDHSVTGFLTQKFVDPVTEFYTAGGSTSGTSAPTILFRLAELYLNVAECHAALGNTQEAIDALNPVRERAGIPKLTLADITNNMTIKDWVHNERFVELWNEGHRFFDVRRWAEGAKYFGANKREGLNAEVQSPTFEEFNKRTTVDAPYVWENRMYLNPVFYNEVYKNPQMVQAPGY
As to B1, the “glycan array binding signal (z-score)” value in assay [1] is 1.07; in assay [2], -0.813; in assay [3], 3.02; in assay [4], -0.608; in assay [5] it was -0.754; in assay [6], -0.976. Also, the “glycan array binding signal (z-score)” value in [7] is 0.296; in assay [8] it was -0.644; in [9], -1.1; in assay [10], 0.145; in assay [11] it was 1.19; with Neu5Ac(a2-6)GalNAc, -0.743. The “glycan array binding signal (z-score)” value was -0.075 in assay [12]; -2.33 in assay [13]; -1.36 in assay [14]; -0.187 in [15]; -0.727 with Neu5Ac(a2-8)Neu5Ac; 1.96 in [16]. Further, the “glycan array binding signal (z-score)” value in assay [17] was -1.24; in assay [18] it was 0.166; in assay [19], 0.023; in [20] it was -1.1; in assay [21], 0.954.
